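Genome-wide siRNA knockdown in TC32 Ewing sarcoma cells, comparing luciferase light from an NR0B1-promoter reporter with a CMV-promoter reporter 48 hours after transfection. Each siRNA was applied at 20 nM. A z-score of the log NR0B1-over-CMV signal, less the median of siRNAs with the same seed; more negative means a stronger specific loss of the NR0B1 reporter.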

The strongest results of the screen are mostly left out here. Sequences are the guide (antisense) strand, without overhang.

| strand | target gene | seed-corrected z-score |
|---|---|---|
| `UUCGGUUUCAGCUCUAGUG` | ARMC2 | -0.4624 |
| `UUCCUUCUCGCUCUUGUGC` | CUL7 | 0.1604 |
| `UUGGGAGUAAUGACAGAGG` | OR8D1 | -0.8803 |
| `UCAUUCUUAAUGAUGUUCC` | NEIL2 | 0.8835 |
| `UAAGUUAUACAAAUUGACG` | SLC16A14 | 0.9839 |
| `UUCCGUUGAACAUCGUAUC` | SHPRH | 0.007505 |
| `UCUGAUCAAAAACUUGACC` | CPM | -0.903 |
| `UGCUCGCUCAGCUUGAUCU` | NELFA | 0.4578 |
| `UUCCGUAAGACUCAUCUGC` | RICTOR | -0.5224 |
| `UGAGUAAACCAUGAAAGCC` | LINC-PINT | -0.9826 |
| `UACUUUCUAAAAUACUUUC` | GPR88 | 0.03869 |
| `UAUUCGAUUGUUCACAUAG` | ATP10D | 0.1107 |
| `UAAGUUUGUAAUGUCUUCC` | CCDC122 | -0.5623 |
| `UCUAGUUUGAGAAUACUUU` | LLPH | 0.1978 |
| `ACUUAAACAGGUACUGUCC` | METTL16 | -0.2069 |
| `AAAGUGGUACGUCCGGUUG` | ASAP3 | 1.532 |
| `UUCUUUGAAGUUACAAUCU` | KGFLP1 | 0.9017 |
| `UAUAAGUCACAUGUGAUCU` | FBXO46 | 0.2427 |
| `UGCUGGUACAGCAUUGUUC` | INS | -1.312 |
| `UAUAGUCCCACAUUGUUGC` | CHPT1 | -0.09131 |
| `UGUAGUUGCAACUCUAGCC` | EPRS | -0.9428 |
| `UGCGGUAUUGGUGUAAGGG` | IMP4 | 0.672 |
| `UAAAUUGCGGGCGAGAACG` | TCEAL1 | 0.0356 |
| `AACUGGGUAAGAACGUGCG` | SEC61A2 | -1.294 |
| `UAAUCUUGGGCGUAUUUUG` | TMEM248 | 1.116 |
| `AGUGUAACAAAUCGUGAGC` | C5AR1 | -0.3048 |
| `AAGAAUUACGCAAUUAUGC` | CIRBP-AS1 | 0.524 |
| `AUCCUAUUGAAAAGUGACC` | RNF181 | 0.1864 |
| `AAACCGAUGCCCACUCUGC` | FGF5 | -0.104 |
| `UCACGGAUCUUUUUCACCC` | PLCG1 | -0.4491 |
| `UUGUUUGCGACGAUUGCGU` | MTG2 | 0.1528 |
| `UUUCUUCAUCGAAGCCUCC` | ASIP | 0.09814 |
| `UACAUGAUAACCCAUGAAG` | MSL2 | 0.007746 |
| `UUCAUUGUUUGAGUCAGGC` | TMEM87A | 0.9236 |
| `UGAACUCUUACUCUCAGCU` | H1FOO | -1.787 |
| `UUCUCUGCGAUGAUCUUGC` | TOR1A | -0.3143 |
| `UCUCUCUUGAGCAUAGGCC` | TTC24 | 0.04242 |
| `AUCUUGGUCUUUUCUACCC` | ADRB3 | 0.1737 |
| `UUGAUGUAAGUAUAGAACC` | SLC15A1 | -0.1141 |
| `UCGUAGAUCAGCAGGUUUC` | CREB3L2 | -0.1617 |
| `UCAGUGAGCUUUGACUUCG` | LOC645481 | 0.4289 |
| `UUCAUUUCUAGCUCUGCAC` | ANKS3 | 0.03864 |
| `UUCGUUUUCUCGGAACACG` | PLEKHM2 | 1.053 |
| `UGACAGUUCACUAGGGCCC` | EXOSC4 | 0.1579 |
| `UUAGUGCCGAGAAUCCUCU` | WNT7B | 0.2118 |
| `UAUUUCACCGUGGAAAUUU` | NPPB | -0.8031 |
| `ACAGCACUAAAAUAUAGGC` | TMEM219 | 0.3906 |
| `UUAAAGACGAUGUUGACUC` | DDX39A | -0.4346 |
| `UGAAUUUGGAUAAAGCAGU` | CSF2RA | 1.418 |
| `UCACAUACUCUGACCCUGC` | PLEKHN1 | 0.3589 |
| `AUCAUGACCGCGUUCAUGC` | RAB40C | 0.09162 |
| `UAAACUCUCACGCCUAUGG` | ZNF219 | -0.06475 |
| `UUUCAUAGAAGUUUAUUGC` | NAA60 | -0.807 |
| `UUACACUUGACCAUGAUAC` | CRISP1 | 0.3949 |
| `UUCUUAUUUGUACCUAUCC` | EYS | 0.5228 |

For reference, 7 entries once more:

{"strand": "UUAGUGCCGAGAAUCCUCU", "target gene": "WNT7B", "seed-corrected z-score": "0.2118"}
{"strand": "UAAUCUUGGGCGUAUUUUG", "target gene": "TMEM248", "seed-corrected z-score": "1.116"}
{"strand": "UUCUUAUUUGUACCUAUCC", "target gene": "EYS", "seed-corrected z-score": "0.5228"}
{"strand": "UUCAUUGUUUGAGUCAGGC", "target gene": "TMEM87A", "seed-corrected z-score": "0.9236"}
{"strand": "UUCGGUUUCAGCUCUAGUG", "target gene": "ARMC2", "seed-corrected z-score": "-0.4624"}
{"strand": "AGUGUAACAAAUCGUGAGC", "target gene": "C5AR1", "seed-corrected z-score": "-0.3048"}
{"strand": "UGAAUUUGGAUAAAGCAGU", "target gene": "CSF2RA", "seed-corrected z-score": "1.418"}

Source: PubChem BioAssay AID1159506 (NCATS, 2015).